# From the supplement of paper PMC10060354, “Discovery of a small molecule ligand of FRS2 that inhibits invasion and tumor growth” (Cellular Oncology, 2022)
# Protein sequences, listed by entry. Tags and fused reporters are not part of them. Lines headed by an entry give the natural chain unless they say otherwise; changes in a name come on top.
# UniProt P23526: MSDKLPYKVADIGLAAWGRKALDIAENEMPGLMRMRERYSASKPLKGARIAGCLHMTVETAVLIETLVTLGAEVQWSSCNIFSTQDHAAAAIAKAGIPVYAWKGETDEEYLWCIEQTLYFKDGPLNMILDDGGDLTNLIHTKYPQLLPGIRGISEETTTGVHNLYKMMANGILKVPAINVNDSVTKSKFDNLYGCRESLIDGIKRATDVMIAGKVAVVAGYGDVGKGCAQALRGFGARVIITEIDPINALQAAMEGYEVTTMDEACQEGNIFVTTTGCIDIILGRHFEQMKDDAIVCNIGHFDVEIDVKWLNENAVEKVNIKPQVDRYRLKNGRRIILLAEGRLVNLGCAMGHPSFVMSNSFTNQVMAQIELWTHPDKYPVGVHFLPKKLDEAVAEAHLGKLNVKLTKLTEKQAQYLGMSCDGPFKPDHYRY
# UniProt Q8TDQ7: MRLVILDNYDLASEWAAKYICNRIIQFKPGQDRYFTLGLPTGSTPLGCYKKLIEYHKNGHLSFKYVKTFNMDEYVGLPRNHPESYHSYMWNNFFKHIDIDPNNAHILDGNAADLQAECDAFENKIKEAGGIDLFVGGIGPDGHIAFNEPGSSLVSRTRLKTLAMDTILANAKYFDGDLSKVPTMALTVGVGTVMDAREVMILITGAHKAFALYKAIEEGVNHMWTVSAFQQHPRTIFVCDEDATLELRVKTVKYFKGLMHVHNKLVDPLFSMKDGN
# UniProt Q8NF64: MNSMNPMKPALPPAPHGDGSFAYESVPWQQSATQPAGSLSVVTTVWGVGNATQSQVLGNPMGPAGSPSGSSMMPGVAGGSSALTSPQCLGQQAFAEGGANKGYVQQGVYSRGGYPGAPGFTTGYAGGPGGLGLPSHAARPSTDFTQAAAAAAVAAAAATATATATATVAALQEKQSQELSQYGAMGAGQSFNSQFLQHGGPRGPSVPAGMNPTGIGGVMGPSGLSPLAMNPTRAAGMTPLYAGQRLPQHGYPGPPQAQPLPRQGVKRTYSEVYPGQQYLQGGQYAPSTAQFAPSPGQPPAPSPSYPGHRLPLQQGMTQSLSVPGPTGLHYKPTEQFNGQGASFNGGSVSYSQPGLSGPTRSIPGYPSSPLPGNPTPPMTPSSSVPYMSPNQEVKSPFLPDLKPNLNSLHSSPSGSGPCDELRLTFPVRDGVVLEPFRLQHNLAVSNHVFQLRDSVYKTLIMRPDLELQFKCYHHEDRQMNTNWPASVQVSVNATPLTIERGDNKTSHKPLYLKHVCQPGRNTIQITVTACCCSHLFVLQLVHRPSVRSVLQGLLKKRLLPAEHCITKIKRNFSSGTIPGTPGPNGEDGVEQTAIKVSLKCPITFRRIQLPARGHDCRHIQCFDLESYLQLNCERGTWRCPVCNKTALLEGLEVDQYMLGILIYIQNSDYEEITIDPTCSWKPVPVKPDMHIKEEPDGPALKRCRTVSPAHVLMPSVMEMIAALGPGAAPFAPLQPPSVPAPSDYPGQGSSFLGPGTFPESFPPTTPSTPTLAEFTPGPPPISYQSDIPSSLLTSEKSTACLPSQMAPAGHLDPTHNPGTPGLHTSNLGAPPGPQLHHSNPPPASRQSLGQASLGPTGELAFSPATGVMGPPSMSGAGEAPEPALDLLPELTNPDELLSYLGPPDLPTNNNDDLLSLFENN
# UniProt O76027: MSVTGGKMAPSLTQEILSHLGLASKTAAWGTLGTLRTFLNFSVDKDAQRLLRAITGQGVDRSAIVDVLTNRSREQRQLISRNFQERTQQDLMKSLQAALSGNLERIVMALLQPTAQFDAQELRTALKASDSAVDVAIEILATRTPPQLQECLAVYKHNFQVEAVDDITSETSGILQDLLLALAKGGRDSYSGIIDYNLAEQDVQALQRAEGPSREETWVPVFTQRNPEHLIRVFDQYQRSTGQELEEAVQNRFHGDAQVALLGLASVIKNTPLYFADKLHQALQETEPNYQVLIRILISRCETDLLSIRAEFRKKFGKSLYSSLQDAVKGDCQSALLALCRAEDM
# UniProt Q969T9: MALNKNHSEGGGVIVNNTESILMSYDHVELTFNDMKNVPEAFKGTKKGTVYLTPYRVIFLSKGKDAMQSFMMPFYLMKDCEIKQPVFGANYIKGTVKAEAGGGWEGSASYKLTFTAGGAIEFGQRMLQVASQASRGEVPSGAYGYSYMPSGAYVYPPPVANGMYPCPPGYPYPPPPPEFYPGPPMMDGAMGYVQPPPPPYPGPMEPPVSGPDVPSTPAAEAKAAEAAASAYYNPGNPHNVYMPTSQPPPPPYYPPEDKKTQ
# UniProt Q9H4B0: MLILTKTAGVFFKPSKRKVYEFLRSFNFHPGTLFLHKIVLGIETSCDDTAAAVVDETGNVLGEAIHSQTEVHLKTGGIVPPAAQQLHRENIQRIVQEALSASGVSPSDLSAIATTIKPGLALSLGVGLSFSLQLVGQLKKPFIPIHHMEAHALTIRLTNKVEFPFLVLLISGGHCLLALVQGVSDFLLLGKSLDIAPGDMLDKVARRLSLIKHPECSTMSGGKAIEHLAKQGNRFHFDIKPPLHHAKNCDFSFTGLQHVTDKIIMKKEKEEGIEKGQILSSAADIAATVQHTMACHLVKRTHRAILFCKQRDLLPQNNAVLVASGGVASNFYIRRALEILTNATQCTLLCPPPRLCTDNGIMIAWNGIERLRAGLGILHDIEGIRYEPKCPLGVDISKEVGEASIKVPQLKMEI
# UniProt Q9Y281, whole entry: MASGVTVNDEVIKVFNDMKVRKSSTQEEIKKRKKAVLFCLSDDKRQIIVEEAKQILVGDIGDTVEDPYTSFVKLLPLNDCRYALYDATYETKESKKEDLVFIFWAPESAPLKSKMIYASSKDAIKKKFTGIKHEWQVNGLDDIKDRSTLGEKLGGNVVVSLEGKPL
# UniProt P67936, whole entry: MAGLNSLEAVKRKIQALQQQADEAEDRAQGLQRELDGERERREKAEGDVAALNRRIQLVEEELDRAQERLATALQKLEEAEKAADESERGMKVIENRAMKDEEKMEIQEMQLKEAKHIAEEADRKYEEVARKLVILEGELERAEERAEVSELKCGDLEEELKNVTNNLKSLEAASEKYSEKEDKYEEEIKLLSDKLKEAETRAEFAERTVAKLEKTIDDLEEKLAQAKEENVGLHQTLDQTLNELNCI
# UniProt A6PVI3: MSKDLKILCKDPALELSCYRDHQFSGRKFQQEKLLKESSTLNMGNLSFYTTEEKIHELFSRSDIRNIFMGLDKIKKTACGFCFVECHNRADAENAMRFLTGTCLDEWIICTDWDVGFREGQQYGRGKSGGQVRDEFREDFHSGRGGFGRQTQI
# UniProt O43598: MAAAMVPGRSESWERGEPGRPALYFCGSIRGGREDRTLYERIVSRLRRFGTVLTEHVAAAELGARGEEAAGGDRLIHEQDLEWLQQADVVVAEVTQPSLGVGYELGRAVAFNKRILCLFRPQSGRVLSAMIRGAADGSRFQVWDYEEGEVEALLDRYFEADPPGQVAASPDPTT
# UniProt O75746: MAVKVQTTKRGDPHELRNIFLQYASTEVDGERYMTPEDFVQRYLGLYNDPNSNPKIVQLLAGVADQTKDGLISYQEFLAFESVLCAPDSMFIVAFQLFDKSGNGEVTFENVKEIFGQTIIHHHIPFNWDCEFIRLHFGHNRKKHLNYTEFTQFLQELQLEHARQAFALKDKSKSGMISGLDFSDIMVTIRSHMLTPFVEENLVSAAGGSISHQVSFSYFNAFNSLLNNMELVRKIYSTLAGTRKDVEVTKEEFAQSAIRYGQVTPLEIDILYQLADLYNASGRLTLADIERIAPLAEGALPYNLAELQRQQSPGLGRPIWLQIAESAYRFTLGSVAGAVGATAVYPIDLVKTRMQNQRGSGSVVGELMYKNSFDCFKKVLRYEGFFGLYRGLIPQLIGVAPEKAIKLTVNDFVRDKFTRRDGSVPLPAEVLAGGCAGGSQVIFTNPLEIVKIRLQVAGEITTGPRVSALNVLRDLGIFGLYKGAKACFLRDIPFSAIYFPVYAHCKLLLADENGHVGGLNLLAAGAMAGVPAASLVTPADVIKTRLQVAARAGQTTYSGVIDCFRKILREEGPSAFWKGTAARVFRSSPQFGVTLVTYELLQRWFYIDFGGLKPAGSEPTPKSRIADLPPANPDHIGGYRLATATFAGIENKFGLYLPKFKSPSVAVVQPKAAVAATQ
# UniProt O43815: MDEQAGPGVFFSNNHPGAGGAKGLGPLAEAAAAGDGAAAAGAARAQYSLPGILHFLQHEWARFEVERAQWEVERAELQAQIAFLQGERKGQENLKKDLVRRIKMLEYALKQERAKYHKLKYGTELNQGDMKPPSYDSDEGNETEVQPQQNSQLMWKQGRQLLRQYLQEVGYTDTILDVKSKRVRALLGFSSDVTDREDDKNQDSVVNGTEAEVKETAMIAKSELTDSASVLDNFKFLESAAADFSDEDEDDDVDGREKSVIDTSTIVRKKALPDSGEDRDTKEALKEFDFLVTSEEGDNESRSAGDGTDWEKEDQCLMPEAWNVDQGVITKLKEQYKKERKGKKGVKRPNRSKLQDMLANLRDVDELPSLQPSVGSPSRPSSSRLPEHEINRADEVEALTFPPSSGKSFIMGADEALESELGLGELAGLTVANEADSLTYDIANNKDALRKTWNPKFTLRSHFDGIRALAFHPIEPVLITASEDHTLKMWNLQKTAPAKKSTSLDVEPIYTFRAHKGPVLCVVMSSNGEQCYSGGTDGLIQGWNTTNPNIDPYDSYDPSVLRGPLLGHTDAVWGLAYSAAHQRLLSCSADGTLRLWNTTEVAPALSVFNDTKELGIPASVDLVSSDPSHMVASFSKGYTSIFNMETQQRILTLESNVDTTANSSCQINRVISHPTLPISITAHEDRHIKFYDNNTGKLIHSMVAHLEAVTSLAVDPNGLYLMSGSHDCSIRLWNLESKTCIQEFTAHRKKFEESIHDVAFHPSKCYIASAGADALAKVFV
# UniProt Q6P1S2: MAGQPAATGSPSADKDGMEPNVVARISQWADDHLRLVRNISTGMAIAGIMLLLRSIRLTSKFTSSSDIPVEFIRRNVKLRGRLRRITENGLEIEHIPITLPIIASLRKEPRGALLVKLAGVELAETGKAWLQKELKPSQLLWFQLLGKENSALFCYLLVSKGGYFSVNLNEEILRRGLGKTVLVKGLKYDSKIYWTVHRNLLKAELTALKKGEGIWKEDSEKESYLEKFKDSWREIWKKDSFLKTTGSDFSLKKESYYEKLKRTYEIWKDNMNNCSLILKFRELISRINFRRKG
# UniProt Q8TDW4: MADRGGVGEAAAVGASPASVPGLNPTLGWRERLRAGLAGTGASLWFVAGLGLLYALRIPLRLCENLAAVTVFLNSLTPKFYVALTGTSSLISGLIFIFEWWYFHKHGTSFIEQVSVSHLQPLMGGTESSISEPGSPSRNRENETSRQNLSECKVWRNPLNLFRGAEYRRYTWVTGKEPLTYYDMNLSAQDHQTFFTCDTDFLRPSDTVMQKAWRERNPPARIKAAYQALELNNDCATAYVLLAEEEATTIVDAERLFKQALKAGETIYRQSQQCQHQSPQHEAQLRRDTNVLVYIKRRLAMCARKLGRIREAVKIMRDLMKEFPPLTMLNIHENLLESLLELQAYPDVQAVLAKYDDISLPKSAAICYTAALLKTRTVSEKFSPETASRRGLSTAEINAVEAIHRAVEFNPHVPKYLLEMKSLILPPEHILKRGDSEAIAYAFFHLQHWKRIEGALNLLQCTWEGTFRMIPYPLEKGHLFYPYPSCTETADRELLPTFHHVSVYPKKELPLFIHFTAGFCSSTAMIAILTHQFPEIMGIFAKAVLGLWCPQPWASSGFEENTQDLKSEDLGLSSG
# UniProt Q9H4G0, whole entry: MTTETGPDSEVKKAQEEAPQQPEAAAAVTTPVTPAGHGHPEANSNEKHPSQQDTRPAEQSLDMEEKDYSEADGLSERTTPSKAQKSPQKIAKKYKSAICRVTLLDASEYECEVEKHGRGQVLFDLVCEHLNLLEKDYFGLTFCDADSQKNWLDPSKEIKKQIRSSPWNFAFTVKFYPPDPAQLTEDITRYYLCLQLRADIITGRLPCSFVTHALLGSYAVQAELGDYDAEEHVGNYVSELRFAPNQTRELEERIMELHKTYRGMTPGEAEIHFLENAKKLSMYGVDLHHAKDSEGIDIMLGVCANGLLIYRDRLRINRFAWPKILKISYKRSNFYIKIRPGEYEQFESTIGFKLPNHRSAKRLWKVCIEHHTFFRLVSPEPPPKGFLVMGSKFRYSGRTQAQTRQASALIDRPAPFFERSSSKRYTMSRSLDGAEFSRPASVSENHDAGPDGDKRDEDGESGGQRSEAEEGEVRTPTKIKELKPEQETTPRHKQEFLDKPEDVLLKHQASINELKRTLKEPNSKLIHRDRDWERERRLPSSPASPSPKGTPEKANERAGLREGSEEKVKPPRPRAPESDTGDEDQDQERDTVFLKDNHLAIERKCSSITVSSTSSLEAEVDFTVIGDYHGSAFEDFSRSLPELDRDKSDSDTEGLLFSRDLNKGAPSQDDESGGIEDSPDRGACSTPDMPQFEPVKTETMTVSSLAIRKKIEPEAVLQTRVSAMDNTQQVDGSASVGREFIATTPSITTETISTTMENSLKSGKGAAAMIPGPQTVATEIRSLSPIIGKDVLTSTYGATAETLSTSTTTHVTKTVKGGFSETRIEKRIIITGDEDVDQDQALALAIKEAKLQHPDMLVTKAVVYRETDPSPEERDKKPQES
# Single values are uncertain, as repeats are few or missing.
# Compound: [O-][N+](C(C1=C(C(O)=C2)NC(C(C=C3)=CC=C3Cl)C4C1C=CC4)=C2Cl)=O
# Assay: melting temperature shift (compound 7 minus DMSO); higher = compound stabilises the protein
# Settings: 10 µM
# Procedure: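 Thermal proteome profiling (TMT mass spectrometry) in intact DAOY medulloblastoma cells or DAOY lysates treated with 10 µM compound 7 or DMSO, heated at 10 temperatures from 40.5 to 73.8 °C for 3 min. Melting curves were fitted with the Bioconductor TPP package, and the melting point difference between compound and vehicle is reported per protein (single curve per condition).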
# [1] = system: DAOY cell lysate, treatment time: 20 min, 4 °C
# [2] = system: intact DAOY cells, treatment time: 90 min, 37 °C
Target,melting temperature shift [1] [°C],melting temperature shift [2] [°C]
C19ORF52 (UniProt Q9BSF4),-1.32,1.75
HNRNPF (UniProt P52597),-0.00265,-0.439
RPS13 (UniProt P62277),-0.247,-0.584
AMD1 (UniProt P17707),0.353,0.537
CCDC124 (UniProt Q96CT7),-2.35,–
PRPF40A (UniProt O75400),0.176,-0.48
SOGA1 (UniProt O94964),–,-3.17
UniProt Q96JI7,-0.717,-1.41
MARC2 (UniProt Q969Z3),-0.955,-0.402
TSNAX (UniProt Q99598),-1.1,1.52
LRRC40 (UniProt Q9H9A6),-0.699,-0.576
AHCY (UniProt P23526),-0.707,-0.591
UniProt Q8WVP5,–,-3.14
ALYREF (UniProt Q86V81),1.23,-1.15
GPALPP1 (UniProt Q8IXQ4),6.83,–
UniProt Q9ULQ0,–,0.656
GNPDA2 (UniProt Q8TDQ7),-1.11,3.07
UniProt P29279,2.1,1.45
ZMIZ2 (UniProt Q8NF64),-3.31,1.87
SMAD4 (UniProt Q13485),-1.08,0.428
KIAA0907 (UniProt Q7Z7F0),-1.8,-2.28
CYTH1 (UniProt Q15438),-2.64,0.754
SLC25A1 (UniProt P53007),0.792,–
TJAP1 (UniProt Q5JTD0),-0.839,-0.743

Target,melting temperature shift [1] [°C],melting temperature shift [2] [°C]
UniProt P28062,-2.62,-0.805
UniProt O76027,–,1.86
UniProt P54868,–,-1.43
EML2 (UniProt O95834),-0.248,0.504
PLXNA2 (UniProt O75051),0.888,–
ECSIT (UniProt Q9BQ95),0.466,0.423
PPP2R5E (UniProt Q16537),–,-0.388
UniProt O14770,-0.558,–
MRPL54 (UniProt Q6P161),0.539,–
HCK (UniProt P08631),–,0.345
UniProt Q9H0C2,–,-0.259
ZNF609 (UniProt O15014),0.599,–
PDPR (UniProt Q8NCN5),1.16,1.42
UniProt A6NNZ2,–,-0.819
LYSMD2 (UniProt Q8IV50),–,-0.375
SLAIN2 (UniProt Q9P270),-0.0602,–
GINS2 (UniProt Q9Y248),-0.378,-0.39
GSTZ1 (UniProt O43708),-1.04,-0.976
ANKRD54 (UniProt Q6NXT1),–,-1.46
WDR74 (UniProt Q6RFH5),0.0784,0.338
WBP2 (UniProt Q969T9),-1.32,-1.04
UniProt Q5JUX0,–,0.0265
UBR1 (UniProt Q8IWV7),-0.523,0.416
GHITM (UniProt Q9H3K2),2.6,1.15

Target,melting temperature shift [1] [°C],melting temperature shift [2] [°C]
USP9X (UniProt Q93008),-0.754,-0.866
CKMT1A (UniProt P12532),0.122,0.142
MRPL1 (UniProt Q9BYD6),0.583,-0.591
SPDL1 (UniProt Q96EA4),-0.986,1.22
OSGEPL1 (UniProt Q9H4B0),–,2.56
FAM118B (UniProt Q9BPY3),0.557,2.34
PPM1B (UniProt O75688),-0.539,-0.0138
CAMSAP2 (UniProt Q08AD1),-0.269,-0.985
UniProt Q8TEU7,-0.678,-2.59
SNX12 (UniProt Q9UMY4),-0.398,-0.557
LONP1 (UniProt P36776),0.754,-1.17
ANKFY1 (UniProt Q9P2R3),-1.07,-0.184
UniProt Q8N819,–,0.838
SMG9 (UniProt Q9H0W8),-0.0469,–
POLR2H (UniProt P52434),-0.351,0.249
UniProt Q6NWY9,–,-1.1
CFL2 (UniProt Q9Y281),-0.697,2.28
IMMT (UniProt Q16891),1.73,-0.183
UniProt Q8N568,–,-2.29
UniProt P48454,-0.507,0.222
TPM4 (UniProt P67936),-2.59,–
AHNAK (UniProt Q09666),0.928,–
UniProt Q92928,–,-2.02
CHMP2B (UniProt Q9UQN3),0.771,-1.02

# Reformatted: entries from further up.
Target	melting temperature shift [1] [°C]	melting temperature shift [2] [°C]
LONP1 (UniProt P36776)	0.754	-1.17
ANKFY1 (UniProt Q9P2R3)	-1.07	-0.184
UniProt Q8N819	–	0.838
SMG9 (UniProt Q9H0W8)	-0.0469	–

# The listing continues.

Target,melting temperature shift [1] [°C],melting temperature shift [2] [°C]
UniProt A6PVI3,–,1.35
UniProt P08253,1.96,1.33
UniProt Q9Y483,-2.33,–
LRRC57 (UniProt Q8N9N7),0.27,0.112
UniProt Q2TB10,0.768,–
TUBA1C (UniProt Q9BQE3),-0.524,-0.58
UniProt Q16594,-0.921,-1.13
PEF1 (UniProt Q9UBV8),-1.27,-0.157
UniProt Q9H147,0.523,-3.46
MADD (UniProt Q8WXG6),-0.669,-1.31
NUBP1 (UniProt P53384),-0.169,-0.498
UniProt O76061,-0.438,–
DNPH1 (UniProt O43598),-1.17,0.744
DHX30 (UniProt Q7L2E3),-0.426,0.48
UniProt P63027,–,1.62
UniProt P53674,–,0.91
SLC25A12 (UniProt O75746),0.284,0.0574
PSMA3 (UniProt P25788),–,-0.179
UniProt P12694,-0.263,–
MALT1 (UniProt Q9UDY8),-0.457,-1.26
BLVRA (UniProt P53004),-0.61,-0.698
STRN (UniProt O43815),-0.624,0.303
CCDC91 (UniProt Q7Z6B0),–,1.37
UniProt P01579,–,-3.12

Target,melting temperature shift [1] [°C],melting temperature shift [2] [°C]
MTDH (UniProt Q86UE4),2.75,–
UniProt P0DPD7,-0.143,–
UniProt Q9UKI2,-2.28,–
ACBD6 (UniProt Q9BR61),0.158,0.608
BCAR3 (UniProt O75815),-0.304,-0.287
NCBP2 (UniProt P52298),-0.16,0.133
UniProt Q6P1S2,-0.89,–
MRPS33 (UniProt Q9Y291),0.388,0.271
SLC39A10 (UniProt Q9ULF5),1.21,–
PRPF31 (UniProt Q8WWY3),-1.21,1.46
PUM1 (UniProt Q14671),0.624,-0.0295
UniProt Q8TDW4,–,1.45
C18ORF25 (UniProt Q96B23),4.17,–
SAAL1 (UniProt Q96ER3),-1.6,0.709
PLXNB2 (UniProt O15031),0.961,-0.00288
ALG5 (UniProt Q9Y673),0.695,-1.03
RPS6KA3 (UniProt P51812),-0.625,0.00506
UniProt P22413,1.23,–
GSTT1 (UniProt P30711),-0.0168,-5.17
ERMP1 (UniProt Q7Z2K6),2.35,–
TIA1 (UniProt P31483),0.0782,-0.041
EPB41L1 (UniProt Q9H4G0),1.63,0.785
